{"source": "paper PMC11233601", "binders": {"B1": {"name": "B55α, endogenous in HEK293T lysate (protein, UniProt P63151 1-447)", "chain": "MAGAGGGNDIQWCFSQVKGAVDDDVAEADIISTVEFNHSGELLATGDKGGRVVIFQQEQENKIQSHSRGEYNVYSTFQSHEPEFDYLKSLEIEEKINKIRWLPQKNAAQFLLSTNDKTIKLWKISERDKRPEGYNLKEEDGRYRDPTTVTTLRVPVFRPMDLMVEASPRRIFANAHTYHINSISINSDYETYLSADDLRINLWHLEITDRSFNIVDIKPANMEELTEVITAAEFHPNSCNTFVYSSSKGTIRLCDMRASALCDRHSKLFEEPEDPSNRSFFSEIISSISDVKFSHSGRYMMTRDYLSVKIWDLNMENRPVETYQVHEYLRSKLCSLYENDCIFDKFECCWNGSDSVVMTGSYNNFFRMFDRNTKRDITLEASRENNKPRTVLKPRKVCASGKRKKDEISVDSLDFNKKILHTAWHPKENIIAVATTNNLYIFQDKVN"}, "B2": {"name": "murine FLAG-FAM122A S73A (protein, UniProt Q9DB52 1-284)", "chain": "MAQEKMELDLELPAGASPAEGGGPGGGGLRRSNSAPLIHGLSDSSPVFQAEAPSARRNSTTFPSRHGLLLPAAPVRMHSSRLHQIKQEEGMDLINRETVHEREVQTAMQISHSWEESFSLSDNDVEKSASPKRIDFIPVSPAPSPTRGIGKQCFSPSLQSFVSSNGLPPSPIPSPTTRFTTRRSQSPINCIRPSVLGPLKRKCEMETDYQPKRFFQGITNMLSSDVAQLSDPGVCVSSDTLDGNSSSAGSSCNSPAKVSTTTDSPVSPAQAASPFIPVDELSSK"}, "B3": {"name": "FLAG-p107 (protein, UniProt P28749 1-1068)", "chain": "MFEDKPHAEGAAVVAAAGEALQALCQELNLDEGSAAEALDDFTAIRGNYSLEGEVTHWLACSLYVACRKSIIPTVGKGIMEGNCVSLTRILRSAKLSLIQFFSKMKKWMDMSNLPQEFRERIERLERNFEVSTVIFKKYEPIFLDIFQNPYEEPPKLPRSRKQRRIPCSVKDLFNFCWTLFVYTKGNFRMIGDDLVNSYHLLLCCLDLIFANAIMCPNRQDLLNPSFKGLPSDFHTADFTASEEPPCIIAVLCELHDGLLVEAKGIKEHYFKPYISKLFDRKILKGECLLDLSSFTDNSKAVNKEYEEYVLTVGDFDERIFLGADAEEEIGTPRKFTRDTPLGKLTAQANVEYNLQQHFEKKRSFAPSTPLTGRRYLREKEAVITPVASATQSVSRLQSIVAGLKNAPSDQLINIFESCVRNPVENIMKILKGIGETFCQHYTQSTDEQPGSHIDFAVNRLKLAEILYYKILETVMVQETRRLHGMDMSVLLEQDIFHRSLMACCLEIVLFAYSSPRTFPWIIEVLNLQPFYFYKVIEVVIRSEEGLSRDMVKHLNSIEEQILESLAWSHDSALWEALQVSANKVPTCEEVIFPNNFETGNGGNVQGHLPLMPMSPLMHPRVKEVRTDSGSLRRDMQPLSPISVHERYSSPTAGSAKRRLFGEDPPKEMLMDKIITEGTKLKIAPSSSITAENVSILPGQTLLTMATAPVTGTTGHKVTIPLHGVANDAGEITLIPLSMNTNQESKVKSPVSLTAHSLIGASPKQTNLTKAQEVHSTGINRPKRTGSLALFYRKVYHLASVRLRDLCLKLDVSNELRRKIWTCFEFTLVHCPDLMKDRHLDQLLLCAFYIMAKVTKEERTFQEIMKSYRNQPQANSHVYRSVLLKSIPREVVAYNKNINDDFEMIDCDLEDATKTPDCSSGPVKEERGDLIKFYNTIYVGRVKSFALKYDLANQDHMMDAPPLSPFPHIKQQPGSPRRISQQHSIYISPHKNGSGLTPRSALLYKFNGSPSKSLKDINNMIRQGEQRTKKRVIAIDSDAESPAKRVCQENDDVLLKRLQDVVSERANH"}, "B4": {"name": "B55α (source not stated; Supplementary Figs. 4C and 8B-F) (protein, UniProt P63151 1-447)", "chain": "B1 chain"}, "B5": {"name": "murine FLAG-FAM122A R81A L82A (protein, UniProt Q9DB52 1-284)", "chain": "B2 chain with A73S, R81A, L82A"}, "B6": {"name": "murine FLAG-FAM122A I85A K86A (protein, UniProt Q9DB52 1-284)", "chain": "B2 chain with A73S, I85A, K86A"}, "B7": {"name": "murine FLAG-FAM122A wild type, Q9DB52 1-284 (protein)", "chain": "B2 chain with A73S"}}, "key": {"[1]": {"target": "T1, murine FLAG-FAM122A H83G Q84G (murine) (UniProt Q9DB52)", "T1 sequence": "B2 chain with A73S, H83G, Q84G", "experiment": "co-IP; HEK293T transfected with FLAG-mFAM122A WT and helix tolerant and breaker mutants; anti-FLAG IPs analysed for endogenous B55α by western blot"}, "[2]": {"target": "T2, murine FLAG-FAM122A H83P Q84P (murine) (UniProt Q9DB52)", "T2 sequence": "B2 chain with A73S, H83P, Q84P", "experiment": "co-IP; HEK293T transfected with FLAG-mFAM122A WT and helix tolerant and breaker mutants; anti-FLAG IPs analysed for endogenous B55α by western blot"}, "[3]": {"target": "T3, murine FLAG-FAM122A H83A Q84A (murine) (UniProt Q9DB52)", "T3 sequence": "B2 chain with A73S, H83A, Q84A", "experiment": "co-IP; HEK293T transfected with FLAG-mFAM122A WT and helix tolerant and breaker mutants; anti-FLAG IPs analysed for endogenous B55α by western blot"}, "[4]": {"target": "murine FLAG-FAM122A wild type (murine) (UniProt Q9DB52)", "experiment": "co-IP; HEK293T transfected with FLAG-mFAM122A WT and helix tolerant and breaker mutants; anti-FLAG IPs analysed for endogenous B55α by western blot"}, "GST-p107-R1R2 (human) [5]": {"target": "T4, GST-p107-R1R2 (human) (UniProt P28749)", "T4 sequence": "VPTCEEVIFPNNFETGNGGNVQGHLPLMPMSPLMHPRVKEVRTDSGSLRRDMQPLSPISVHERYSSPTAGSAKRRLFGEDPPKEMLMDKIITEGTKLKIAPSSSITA", "experiment": "affinity by depletion (GST pull-down, B55α left in the supernatant); selected concentrations of GST-fusion proteins on beads with 100 µg HEK293T lysate in 100 µl overnight; supernatant blotted for B55α and GAPDH; approximate affinity at equilibrium; only the target purified"}, "[6]": {"target": "T5, FAM122A_(L70-K86) peptide fused to GST (murine) (UniProt Q9DB52)", "T5 sequence": "LPASPVRMHSSRLHQIK", "experiment": "pull-down; GST-FAM122A, deletion and mutant constructs (or GST-p107-R1R2) on glutathione beads incubated with HEK293T lysates 3 h or overnight at 4 °C, 4 washes with DIP lysis buffer, western blot; only the target purified"}, "[7]": {"target": "GST-FAM122A full length (murine) (UniProt Q9DB52)", "experiment": "pull-down; GST-FAM122A, deletion and mutant constructs (or GST-p107-R1R2) on glutathione beads incubated with HEK293T lysates 3 h or overnight at 4 °C, 4 washes with DIP lysis buffer, western blot; only the target purified"}, "GST-p107-R1R2 (human) [8]": {"target": "T4, GST-p107-R1R2 (human)", "experiment": "pull-down; GST-FAM122A, deletion and mutant constructs (or GST-p107-R1R2) on glutathione beads incubated with HEK293T lysates 3 h or overnight at 4 °C, 4 washes with DIP lysis buffer, western blot; only the target purified"}, "Myc-B55α wild type [9]": {"target": "T6, Myc-B55α wild type (UniProt P63151)", "T6 sequence": "B1 chain", "experiment": "co-IP; HEK293T cotransfected with FLAG-FAM122A and Myc-B55α WT and mutants; anti-Myc and anti-FLAG beads 3 h or overnight at 4 °C, washes with DIP lysis buffer, western blot"}, "Myc-B55α wild type [10]": {"target": "T6, Myc-B55α wild type", "experiment": "co-IP; competition: HEK293T cotransfected with invariable Myc-B55α and FLAG-p107 and increasing FLAG-FAM122A; anti-Myc IP, western blot"}, "GFP-FAM122A": {"target": "GFP-FAM122A (UniProt Q9DB52)", "experiment": "co-IP; GFP-FAM122A transfected cells treated with HU and/or CHK1 inhibitor (replication stress)"}, "[11]": {"target": "tagged FAM122A in HEK293 and T98G cells (UniProt Q9DB52)", "experiment": "co-IP; B55α bound to tagged FAM122A in HEK293 and T98G cells: exponentially growing, thymidine, RO3306, nocodazole, release from quiescence or from nocodazole"}, "Myc-B55α L225A, P63151": {"target": "T7, Myc-B55α L225A, P63151", "T7 chain": "B1 chain with L225A", "experiment": "co-IP; HEK293T cotransfected with FLAG-FAM122A and Myc-B55α WT and mutants; anti-Myc and anti-FLAG beads 3 h or overnight at 4 °C, washes with DIP lysis buffer, western blot", "conditions": "remark: other sources report otherwise"}}, "note": "Where a chain is given by its changes, count along the chain named. Names may count otherwise. These are yes or no findings as the source states them, for the method shown. In cells and extracts the contact can be indirect. Some results given as binding are weak or reduced against the parent protein; the word gives no strength. For part of these data: Sequences can lack the tags named with a protein.", "data": [{"binder": "B1", "values": [{"measurement": "binding", "setting": "[1]", "value": "no binding"}, {"measurement": "binding", "setting": "[2]", "value": "no binding"}, {"measurement": "binding", "setting": "[3]", "value": "binds"}, {"measurement": "binding", "setting": "[4]", "value": "binds"}, {"measurement": "binding", "setting": "GST-p107-R1R2 (human) [5]", "value": "binds"}, {"measurement": "binding", "setting": "[6]", "value": "no binding"}, {"measurement": "binding", "setting": "[7]", "value": "binds"}, {"measurement": "binding", "setting": "GST-p107-R1R2 (human) [8]", "value": "binds"}]}, {"binder": "B2", "values": [{"measurement": "binding", "setting": "Myc-B55α wild type [9]", "value": "binds"}]}, {"binder": "B3", "values": [{"measurement": "binding", "setting": "Myc-B55α wild type [10]", "value": "binds"}]}, {"binder": "B4", "values": [{"measurement": "binding", "setting": "GFP-FAM122A", "value": "binds"}, {"measurement": "binding", "setting": "[11]", "value": "binds"}]}, {"binder": "B5", "values": [{"measurement": "binding", "setting": "Myc-B55α wild type [9]", "value": "no binding"}]}, {"binder": "B6", "values": [{"measurement": "binding", "setting": "Myc-B55α wild type [9]", "value": "no binding"}]}, {"binder": "B7", "values": [{"measurement": "binding", "setting": "Myc-B55α L225A, P63151", "value": "no binding"}]}]}
